Measurements published in publication PMC8263732, “M1BP cooperates with CP190 to activate transcription at TAD borders and promote chromatin insulator activity” (Nature Communications, 2021).
No constants are given. Whether binding was seen depends on the method and setting. Binding seen in cells or lysates may run through a third protein. Here binding means that the protein was enriched with, or labelled near, the bait; the list need not be complete.

By UniProt entry, the sequences of proteins in these tests, tags left out. Where a name states a change or a piece, a line headed by the entry shows the natural chain unless it says otherwise.
UniProt Q9VHG6: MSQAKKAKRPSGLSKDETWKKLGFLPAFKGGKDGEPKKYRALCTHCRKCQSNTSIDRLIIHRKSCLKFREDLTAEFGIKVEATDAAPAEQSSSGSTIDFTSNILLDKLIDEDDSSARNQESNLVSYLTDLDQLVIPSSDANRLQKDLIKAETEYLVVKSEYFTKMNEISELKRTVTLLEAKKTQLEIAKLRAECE

T1: Centrosomal protein 190 (CP190) (Drosophila (endogenous in 0-24 h Oregon R embryos)) (UniProt Q24478)
T1 sequence: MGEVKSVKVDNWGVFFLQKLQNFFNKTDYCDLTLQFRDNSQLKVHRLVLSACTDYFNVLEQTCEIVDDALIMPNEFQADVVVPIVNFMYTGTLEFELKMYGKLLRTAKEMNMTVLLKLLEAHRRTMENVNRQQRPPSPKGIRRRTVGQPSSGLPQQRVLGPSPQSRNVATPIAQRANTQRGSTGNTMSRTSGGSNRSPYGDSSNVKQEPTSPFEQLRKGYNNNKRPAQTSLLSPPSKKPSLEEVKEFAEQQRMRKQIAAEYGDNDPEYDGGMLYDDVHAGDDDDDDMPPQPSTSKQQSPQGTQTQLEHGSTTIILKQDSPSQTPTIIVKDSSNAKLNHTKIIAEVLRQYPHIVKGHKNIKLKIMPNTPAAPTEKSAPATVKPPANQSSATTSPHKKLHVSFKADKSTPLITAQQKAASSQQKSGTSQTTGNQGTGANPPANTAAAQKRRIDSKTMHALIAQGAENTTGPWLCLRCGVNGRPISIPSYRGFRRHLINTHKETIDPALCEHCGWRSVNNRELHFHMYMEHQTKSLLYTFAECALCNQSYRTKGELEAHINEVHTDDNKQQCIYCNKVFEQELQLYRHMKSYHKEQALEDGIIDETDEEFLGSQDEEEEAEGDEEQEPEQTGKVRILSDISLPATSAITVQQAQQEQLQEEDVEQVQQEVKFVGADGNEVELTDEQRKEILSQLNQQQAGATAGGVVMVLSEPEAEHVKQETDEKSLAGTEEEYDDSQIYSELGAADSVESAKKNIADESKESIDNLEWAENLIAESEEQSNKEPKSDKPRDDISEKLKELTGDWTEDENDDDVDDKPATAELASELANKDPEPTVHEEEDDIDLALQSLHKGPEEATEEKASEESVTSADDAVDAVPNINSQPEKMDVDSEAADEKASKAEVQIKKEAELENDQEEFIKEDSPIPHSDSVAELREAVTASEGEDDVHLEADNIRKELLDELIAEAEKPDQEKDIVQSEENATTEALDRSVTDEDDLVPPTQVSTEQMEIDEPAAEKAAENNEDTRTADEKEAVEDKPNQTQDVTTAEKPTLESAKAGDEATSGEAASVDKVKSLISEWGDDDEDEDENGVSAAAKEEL

T2: Suppressor of Hairy wing [Su(Hw)] (Drosophila (endogenous in 0-24 h Oregon R embryos)) (UniProt P08970)
T2 sequence: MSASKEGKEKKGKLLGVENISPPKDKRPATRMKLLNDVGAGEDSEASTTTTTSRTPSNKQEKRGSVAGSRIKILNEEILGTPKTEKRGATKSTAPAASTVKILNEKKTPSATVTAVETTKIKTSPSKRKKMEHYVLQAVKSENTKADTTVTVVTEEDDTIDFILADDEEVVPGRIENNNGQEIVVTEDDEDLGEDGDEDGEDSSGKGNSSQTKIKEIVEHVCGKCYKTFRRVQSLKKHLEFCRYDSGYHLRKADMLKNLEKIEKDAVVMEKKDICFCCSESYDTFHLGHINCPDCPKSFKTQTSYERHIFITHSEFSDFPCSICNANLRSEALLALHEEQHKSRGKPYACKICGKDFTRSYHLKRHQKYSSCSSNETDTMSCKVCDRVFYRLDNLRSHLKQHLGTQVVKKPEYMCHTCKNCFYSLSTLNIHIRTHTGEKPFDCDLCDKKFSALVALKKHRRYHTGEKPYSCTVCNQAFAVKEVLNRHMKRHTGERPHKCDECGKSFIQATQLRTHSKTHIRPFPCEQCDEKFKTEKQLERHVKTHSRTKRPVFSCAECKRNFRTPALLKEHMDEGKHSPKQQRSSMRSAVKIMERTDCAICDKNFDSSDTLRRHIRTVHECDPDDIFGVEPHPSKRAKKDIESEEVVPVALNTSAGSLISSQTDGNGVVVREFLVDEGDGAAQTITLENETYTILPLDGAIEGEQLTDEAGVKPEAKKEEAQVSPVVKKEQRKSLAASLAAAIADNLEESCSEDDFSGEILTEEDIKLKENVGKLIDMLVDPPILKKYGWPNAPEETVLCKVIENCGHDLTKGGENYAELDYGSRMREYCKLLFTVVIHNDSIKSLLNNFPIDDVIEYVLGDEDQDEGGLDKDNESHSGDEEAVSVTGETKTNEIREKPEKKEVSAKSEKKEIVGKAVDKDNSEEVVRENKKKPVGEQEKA


What was measured:
[1] = target: T1, Centrosomal protein 190 (CP190) (Drosophila (endogenous in 0-24 h Oregon R embryos)); experiment: affinity purification with mass spectrometry; immunoaffinity purification from Drosophila embryonic (0-24 h) nuclear extract in HBSMT (50 mM HEPES pH 6.7, 150 mM NaCl, 5 mM KCl, 2.5 mM MgCl2, 0.3% Triton X-100) with antibodies specific for Su(Hw) or CP190; beads washed twice with HBSMT, once with HBSM, eluted with 1% sodium dodecanoate; six replicates pooled; tandem HPLC-mass spectrometry
[2] = target: T2, Suppressor of Hairy wing [Su(Hw)] (Drosophila (endogenous in 0-24 h Oregon R embryos)); experiment: as above

| Molecule | binding [1] | binding [2] |
| --- | --- | --- |
| Ibf1 | binds | binds |
| BEAF-32 | – | binds |
| Motif 1 Binding Protein (M1BP) (natural protein, UniProt Q9VHM3 1-418, looked up, endogenous protein in embryonic nuclear extract; source: endogenous, nuclear extract of 0-24 h Drosophila embryos) MSKSALKHLKSTCRVCAKYASNKRSPKLFERSNTKMIDNIEALTGLRLENYGCLPDQICECCSMELASAVKLRERCIAAQRELLLGLTEEQRQGISAFYRAAVMGEDIVQTVKTPDDDEVYATYQEIVLEEPKEEIDDTKVEYDNTYYEVAEGHAGEDDAASLIEEADYDSIMAEDEEQQQTLELDEDTELIVGDVNDAYVYDSDDEVAVLDNVLDDEYEHENIVVKKCSLPPKPKVRSDDARRRGTGGVYICEQCGNHIKGRMAFELHCRRHRGDKQFGCELCQSRFCTTSELKRHMRKHTGERPFACKYCGRCFTDYTTRVKHERTHTNERPYVCGTCGKAFTTGYILKNHMLIHSGERAYRCELCDKSFMLPTHLSTHFRSGVHKRHLEKAEMKQVLEQEQKRELKEEEEDSLHI | binds | binds |

Continued, values first:

| binding [1] | binding [2] | Molecule |
| --- | --- | --- |
| binds | binds | Ibf2 (from UniProt Q9VHG6) |
| binds | binds | CCCTC-binding Factor (CTCF), Drosophila (protein, UniProt Q9VS55 1-818) MPRRTKKDEDPEDLQTFLNNFHKEIEGNSDEKVVNTILEAISAEAIDLDENGAEAGGSKPMEEAEADLDHAEEAEEEEEDDEDKYFIDDEGNCYIKTTPKKQKELQKKLKQAAAKPGKATRSVVSTATNKSINLRPAKSTPKATTSKPPPEPKAISVRPARAAAAKAKQSAMPPPPALVVKVPAPRGRPRKNPVIPKPEPMDLERELEELVDEPDISSMVTELSDYTVDEAAVEAATATLTPNEAEVYEFEDNATTEDENADKKDVDFVLSNKEVKLKTASSTSQNSNASGHKYSCPHCPYTASKKFLITRHSRSHDVEPSFKCSICERSFRSNVGLQNHINTHMGNKPHKCKLCESAFTTSGELVRHTRYKHTKEKPHKCTECTYASVELTKLRRHMTCHTGERPYQCPHCTYASQDMFKLKRHMVIHTGEKKYQCDICKSRFTQSNSLKAHKLIHSVVDKPVFQCNYCPTTCGRKADLRVHIKHMHTSDVPMTCRRCGQQLPDRYQYKLHVKSHEGEKCYSCKLCSYASVTQRHLASHMLIHLDEKPFHCDQCPQAFRQRQLLRRHMNLVHNEEYQPPEPREKLHKCPSCPREFTHKGNLMRHMETHDDSANAREKRRRLKLGRNVRLQKDGTVITLIKDQYVDMDRDQEENEEDDNPESYDLAEIEPENSEAEDADDDVETIVSDPIRQRIKPAPIIINKQARLAASEKQPMIINQRLRSQRGTKTFHIKEEPDNSDFTVEWQGDDGEVMVVELVNGDEEVLVKHEPSANSKISAKNCFGFEDDDDYEEYGDGENEVDGASQEFLQLMDMIEQDS |
